Experimental data published in publication PMC8336837, “Structure of the human C9orf72-SMCR8 complex reveals a multivalent protein interaction architecture” (PLoS Biology, 2021).
These are yes or no findings as the source states them, for the method shown. Some entries that bind do so weakly or less than the wild type.

Molecular target: T1, SMCR8 (full-length) (human, UniProt Q8TEV9 1-937)
T1 construct: SMCR8, human, open reading frame amplified from a human cDNA library; residues 1-937; also called SMCR8 Fl; source: Sf-9 insect cells, co-expressed with C9orf72, purified (Strep-Tactin, size-exclusion chromatography)
T1 sequence (looked up): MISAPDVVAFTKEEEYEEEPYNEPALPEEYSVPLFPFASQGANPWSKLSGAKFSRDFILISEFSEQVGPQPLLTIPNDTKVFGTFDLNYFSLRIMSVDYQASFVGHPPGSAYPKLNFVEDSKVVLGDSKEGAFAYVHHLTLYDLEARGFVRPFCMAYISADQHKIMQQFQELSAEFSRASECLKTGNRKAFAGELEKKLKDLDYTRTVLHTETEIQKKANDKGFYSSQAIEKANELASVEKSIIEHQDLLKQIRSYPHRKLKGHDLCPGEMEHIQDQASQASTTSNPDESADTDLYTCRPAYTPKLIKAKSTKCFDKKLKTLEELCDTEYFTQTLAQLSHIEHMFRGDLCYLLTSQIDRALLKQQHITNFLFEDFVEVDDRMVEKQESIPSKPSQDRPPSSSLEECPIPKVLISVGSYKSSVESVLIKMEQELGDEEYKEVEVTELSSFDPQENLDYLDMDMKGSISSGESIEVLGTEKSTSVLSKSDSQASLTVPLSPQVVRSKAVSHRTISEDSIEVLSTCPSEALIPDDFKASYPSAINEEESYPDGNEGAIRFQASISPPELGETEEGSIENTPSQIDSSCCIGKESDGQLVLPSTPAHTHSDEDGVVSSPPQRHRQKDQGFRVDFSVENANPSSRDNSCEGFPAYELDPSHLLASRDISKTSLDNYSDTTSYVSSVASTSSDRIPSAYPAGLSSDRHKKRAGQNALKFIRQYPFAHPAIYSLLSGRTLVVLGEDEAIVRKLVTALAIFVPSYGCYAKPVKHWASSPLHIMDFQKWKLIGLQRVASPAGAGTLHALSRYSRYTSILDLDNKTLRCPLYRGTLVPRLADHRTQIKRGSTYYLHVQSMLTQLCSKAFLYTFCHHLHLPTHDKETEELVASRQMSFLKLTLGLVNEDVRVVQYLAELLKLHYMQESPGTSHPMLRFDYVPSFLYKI
Test: SEC; C9orf72 and SMCR8 co-expressed in Sf-9 cells, purified together on Strep-Tactin beads and Superose 6 10/300 GL

B1: C9orf72 (full-length) (protein, UniProt Q96LT7 1-481)
chain: MSTLCPPPSPAVAKTEIALSGKSPLLAATFAYWDNILGPRVRHIWAPKTEQVLLSDGEITFLANHTLNGEILRNAESGAIDVKFFVLSEKGVIIVSLIFDGNWNGDRSTYGLSIILPQTELSFYLPLHRVCVDRLTHIIRKGRIWMHKERQENVQKIILEGTERMEDQGQSIIPMLTGEVIPVMELLSSMKSHSVPEEIDIADTVLNDDDIGDSCHEGFLLNAISSHLQTCGCSVVVGSSAEKVNKIVRTLCLFLTPAERKCSRLCEAESSFKYESGLFVQGLLKDSTGSFVLPFRQVMYAPYPTTHIDVDVNTVKQMPPCHEHIYNQRRYMRSELTAFWRATSEEDMAQDTIIYTDESFTPDLNIFQDVLHRDTLVKAFLDQVFQLKPGLSLRSTFLAQFLLVLHRKALTLIKYIEDDTQKGKKPFKSLRNLKIDLDLTAEGDLNIIMALAEKIKPGLHSFIFGRPFYTSVQERDVLMTF
binding: binds
